These are yes or no findings as the source states them, for the method shown. In cells and extracts the contact can be indirect. Some entries that bind do so weakly or less than the wild type.
Tests used:
[1] = target: 2'-5' oligoadenylate synthetase 2 (OAS2) p71 isoform (human) (UniProt P29728); test: cross-linking; A549 cells expressing OAS2 p71 or p69 treated with or without 0.5% formaldehyde for 10 min at room temperature, quenched with 0.25 M glycine, lysed in RIPA buffer, sonicated; OAS2 detected by Western blot
[2] = target: 2'-5' oligoadenylate synthetase 2 (OAS2) p69 isoform (human) (UniProt P29728); test: as above

Binder | binding [1] | binding [2]
2'-5' oligoadenylate synthetase 2 (OAS2) p71 isoform (protein, UniProt P29728-1 1-719) MGNGESQLSSVPAQKLGWFIQEYLKPYEECQTLIDEMVNTICDVLQEPEQFPLVQGVAIGGSYGRKTVLRGNSDGTLVLFFSDLKQFQDQKRSQRDILDKTGDKLKFCLFTKWLKNNFEIQKSLDGFTIQVFTKNQRISFEVLAAFNALSLNDNPSPWIYRELKRSLDKTNASPGEFAVCFTELQQKFFDNRPGKLKDLILLIKHWHQQCQKKIKDLPSLSPYALELLTVYAWEQGCRKDNFDIAEGVRTVLELIKCQEKLCIYWMVNYNFEDETIRNILLHQLQSARPVILDPVDPTNNVSGDKICWQWLKKEAQTWLTSPNLDNELPAPSWNVLPAPLFTTPGHLLDKFIKEFLQPNKCFLEQIDSAVNIIRTFLKENCFRQSTAKIQIVRGGSTAKGTALKTGSDADLVVFHNSLKSYTSQKNERHKIVKEIHEQLKAFWREKEEELEVSFEPPKWKAPRVLSFSLKSKVLNESVSFDVLPAFNALGQLSSGSTPSPEVYAGLIDLYKSSDLPGGEFSTCFTVLQRNFIRSRPTKLKDLIRLVKHWYKECERKLKPKGSLPPKYALELLTIYAWEQGSGVPDFDTAEGFRTVLELVTQYQQLCIFWKVNYNFEDETVRKFLLSQLQKTRPVILDPAEPTGDVGGGDRWCWHLLAKEAKEWLSSPCFKDGTGNPIPPWKVPTMQTPGSCGARIHPIVNEMFSSRSHRILNNNSKRNF | binds | 
2'-5' oligoadenylate synthetase 2 (OAS2) p69 isoform (protein, UniProt P29728-2 1-687) MGNGESQLSSVPAQKLGWFIQEYLKPYEECQTLIDEMVNTICDVLQEPEQFPLVQGVAIGGSYGRKTVLRGNSDGTLVLFFSDLKQFQDQKRSQRDILDKTGDKLKFCLFTKWLKNNFEIQKSLDGFTIQVFTKNQRISFEVLAAFNALSLNDNPSPWIYRELKRSLDKTNASPGEFAVCFTELQQKFFDNRPGKLKDLILLIKHWHQQCQKKIKDLPSLSPYALELLTVYAWEQGCRKDNFDIAEGVRTVLELIKCQEKLCIYWMVNYNFEDETIRNILLHQLQSARPVILDPVDPTNNVSGDKICWQWLKKEAQTWLTSPNLDNELPAPSWNVLPAPLFTTPGHLLDKFIKEFLQPNKCFLEQIDSAVNIIRTFLKENCFRQSTAKIQIVRGGSTAKGTALKTGSDADLVVFHNSLKSYTSQKNERHKIVKEIHEQLKAFWREKEEELEVSFEPPKWKAPRVLSFSLKSKVLNESVSFDVLPAFNALGQLSSGSTPSPEVYAGLIDLYKSSDLPGGEFSTCFTVLQRNFIRSRPTKLKDLIRLVKHWYKECERKLKPKGSLPPKYALELLTIYAWEQGSGVPDFDTAEGFRTVLELVTQYQQLCIFWKVNYNFEDETVRKFLLSQLQKTRPVILDPAEPTGDVGGGDRWCWHLLAKEAKEWLSSPCFKDGTGNPIPPWKVPVKVI |  | binds

Source: paper PMC13372824
